1 molecule from publication PMC12313707 can be followed below.

Protein sequences, listed by entry. Tags and fused reporters are not part of them.
UniProt Q61286: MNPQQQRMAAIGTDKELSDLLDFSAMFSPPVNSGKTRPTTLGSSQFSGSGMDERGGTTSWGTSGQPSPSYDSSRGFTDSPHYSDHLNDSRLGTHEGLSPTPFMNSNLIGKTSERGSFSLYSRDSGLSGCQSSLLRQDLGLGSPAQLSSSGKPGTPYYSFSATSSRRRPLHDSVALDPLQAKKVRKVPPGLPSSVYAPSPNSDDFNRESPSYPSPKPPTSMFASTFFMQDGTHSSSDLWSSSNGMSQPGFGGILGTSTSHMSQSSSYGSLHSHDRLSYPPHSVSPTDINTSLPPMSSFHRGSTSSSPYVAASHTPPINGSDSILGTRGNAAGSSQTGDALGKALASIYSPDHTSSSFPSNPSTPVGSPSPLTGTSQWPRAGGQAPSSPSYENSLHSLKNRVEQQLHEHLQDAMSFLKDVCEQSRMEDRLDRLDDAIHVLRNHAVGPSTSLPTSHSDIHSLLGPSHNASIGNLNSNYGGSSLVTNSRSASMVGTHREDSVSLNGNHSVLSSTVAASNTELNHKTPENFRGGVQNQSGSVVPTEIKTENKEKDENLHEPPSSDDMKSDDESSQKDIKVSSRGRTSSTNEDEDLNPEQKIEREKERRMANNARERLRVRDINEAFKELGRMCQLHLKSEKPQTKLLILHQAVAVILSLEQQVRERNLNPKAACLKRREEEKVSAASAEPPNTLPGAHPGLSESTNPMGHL

In the experiment the target is TCF12, endogenous in WT mouse primary myoblasts (mouse (endogenous in primary myoblasts)) (UniProt Q61286). The experiment can be described thus: co-IP; endogenous proteins in lysate of WT mouse primary myoblasts; IP with anti-TCF12 or anti-FBXL3 antibody overnight at 4°C, Protein A and G agarose beads (IP/Co-IP Kit, Absin); Western blot for FBXL3 and TCF12; normal IgG as control.

These are yes or no findings as the source states them, for the method shown. Binding seen in cells or lysates may run through a third protein. Some results given as binding are weak or reduced against the parent protein; the word gives no strength.

B1: F-box and leucine-rich repeat protein 3 (FBXL3), endogenous in WT mouse primary myoblasts (protein, UniProt Q8C4V4 1-428)
chain: MKRGGRDSDQDSAEEGTAEKPKRPRTTQERSQPCDWGNLLQDIVLHVFKYLPLLDRAHASQVCRNWNQVFHMPDLWRCFEFELNQPATSYLKATHPELIKQIIKRHSNHLQYVSFKVDSSKESAEAACDILSQLVNCSLKTLGLISTARPSFMDLPKSHFISALTVVFVNSKSLSSLKIDDTPVDDPSLKVLVANNSDTLKLLKMSSCPHVSPAGILCVADQCHGLRELALNYHLLSDELLLALSSEKHVRLEHLRIDVVSENPGQTHFHTIQKSSWDAFIKHSPKVNLVMYFFLYEEEFDPFFRYEIPATHLYFGRSVSKDVLGRVGMTCPRLVELVVCANGLRPLDEELIRIAERCKNLSAIGLGECEVSCSAFVEFVKMCGGRLSQLSIMEEVLIPDQKYSLEQIHWEVSKHLGRVWFPDMMPTW
B1: the binding entry was “binds”.
